Laboratory results: PubChem BioAssay AID504467 (National Center for Advancing Translational Sciences (NCATS), 2011)
Hit rate of the full screen: of about 330,000 compounds, about 7,700 (2.3%) were called active. The shares of active, inactive and inconclusive entries below differ from those in the screen. Calls follow the shape of the dose curve; as a rule, active = well fitted inhibition curve with a large enough effect; inconclusive = small, poorly fitted or top-dose-only effect, or effect the other way; inactive = flat fitted curve, though single readings scatter. A potency beside an inconclusive call is a rough fit, not a confirmed value.

assay: qHTS screen for small molecules that inhibit ELG1-dependent DNA repair in human embryonic kidney (HEK293T) cells expressing luciferase-tagged ELG1; settings: HEK293T ELG1-luciferase reporter, luminescence, 16 h, DNA damage induced by 5-fluorouridine; activity change, negative = inhibition: at 46.1 µM (top of the series); also: nearly all actives have a fitted effect of over 55% in size
Procedure, shortened: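 In this reporter screen, reduction of luminescence relative to DMSO vehicle indicated activity. Compounds and 5-fluorouridine were added together to 2,000 cells per well, incubated for 16 hr at 37 °C, then developed with ONE-Glo.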
% is scaled to controls: 0 for no effect and ±100 for the full control effect; potency is read from the fitted curve at half-maximal effect.

Compound | activity change, negative = inhibition | Potency
Cc1ccc(NC(=O)C2C(c3ccccc3)C2(Cl)Cl)c(C)c1 (centres undefined) | inactive: 2.26% | –
CCCNC(=O)C1CC(=O)N(c2ccc(OCc3ccc(Cl)cc3)cc2)C1 (centres undefined) | – | inconclusive: 1.64 µM [activator, full curve]
O=C1NC(=S)S/C1=C/c1ccc(OC(=O)c2ccco2)cc1 | – | inconclusive: 29.1 µM [activator, single point]
COc1ccc(CCNc2ccc(N3C(=O)CC(C)C3=O)cc2[N+](=O)[O-])cc1OC (centres undefined) | – | active: 3.66 µM
CC(C)(C)c1ccc(OCc2ccc(C(=O)NN)o2)cc1 | – | inconclusive: 1.46 µM [activator, full curve]
Cc1ccc(N2CCN(/N=C/c3sccc3C)CC2)cc1 | – | inconclusive: 20.6 µM [activator, single point]
O=C(N/N=C/c1cn(-c2cccs2)nc1-c1ccccc1)c1ccccc1O | – | inconclusive: 25.9 µM [inhibitor, single point]
Nc1c(C(=O)NCc2ccccc2)c2nc3ccccc3nc2n1-c1ccc2c(c1)OCO2 | inconclusive: 114% [activator] | –
C=C(C(=O)c1ccccc1)C(c1ccccc1)C(C)C(=O)c1ccccc1 (centres undefined) | – | inconclusive: 16.4 µM [inhibitor, partial curve, poor fit]
Cc1ccc(OCC(=O)Nc2ccc(F)cc2)cc1 | – | inconclusive: 20.6 µM [activator, partial curve]
COc1ccc(S(=O)(=O)N2CCCCCC2)cc1NC(=O)Cc1ccccc1 | – | inconclusive: 18.3 µM [inhibitor, partial curve]
CCCCCCCNC(=O)C1(CC2CC(c3cccc(Br)c3)=NO2)CCN(C(=O)C2(C)CC2)CC1 (centres undefined) | – | inconclusive: 35.5 µM [inhibitor, single point]
Cc1ccc(SCc2nc(-c3cccnc3)no2)cc1 | inactive: 12.5% | –
COc1ccc2nc(NC(=O)CCNC(=O)c3ccco3)sc2c1 | – | inconclusive: 7.3 µM [activator, partial curve]
CN(C)C1=NCC(CSC(=N)N)S1 (centres undefined) | inactive: 4.75% | –
COc1ccc(CN(C)C(=O)[C@H](Cc2ccccc2)NC(=O)c2ccco2)c(OC)c1 | – | inconclusive: 29.1 µM [inhibitor, single point]
O=C(Nc1ccccc1Cl)C1CCCN(S(=O)(=O)c2ccc(-n3cnnn3)cc2)C1 (centres undefined) | inactive: -24.9% | –
CC1C(=O)N2CCCc3cc(NC(=O)c4ccccc4Br)cc1c32 (centres undefined) | – | inconclusive: 25.9 µM [activator, single point]
COc1cc(NC(=S)N2CCCC(CO)C2)cc(OC)c1 (centres undefined) | inactive: 8.82% | –
Cc1cc(NC(=O)CSc2nc(-c3ccco3)cc(C(F)(F)F)n2)n(-c2ccccc2)n1 | – | inconclusive: 0.651 µM [inhibitor, single point]
O=S(=O)(c1ccccc1)n1ccc2cccnc21 | – | inconclusive: 18.4 µM [activator, partial curve, poor fit]
O=C(CSc1nnc(NC2CCCCC2)s1)N1CCOCC1 | – | inconclusive: 14.6 µM [activator, partial curve]
COc1ccc(NC(=O)N(Cc2cc3cc(OC)c(OC)cc3[nH]c2=O)CC2CCCO2)cc1 (centres undefined) | – | inconclusive: 2.91 µM [inhibitor, full curve]

Compound | activity change, negative = inhibition | Potency
CCc1cccc(C)c1NC(=O)C1CN(S(=O)(=O)c2ccccc2)CCN1S(=O)(=O)c1ccccc1 (centres undefined) | – | inconclusive: 23.1 µM [inhibitor, partial curve]
COc1ccc(CCC(=O)OCC(=O)Nc2sccc2C(N)=O)cc1OC | – | inconclusive: 1.16 µM [inhibitor, partial curve]
COc1ccc2c(c1)OC[C@H]1[C@H]2N2C(=O)CN(Cc3ccc(F)cc3)C(=O)[C@@]2(C)[C@H]1c1ccccc1 | inactive: -24.8% | –
CCOc1ccc(-n2cc(-c3ccccc3)c3c(N4CCOCC4)ncnc32)cc1 | – | active: 9.2 µM
CCc1nnc(NC(=O)NC(C)(C)C)s1 | – | inconclusive: 23.1 µM [activator, partial curve]
COc1ccc(CCC(=O)Nc2ccc(-c3noc(-c4ccc(OC)c(OC)c4)n3)cc2)cc1 | – | inconclusive: 5.8 µM [activator, partial curve]
O=C(CSc1n[nH]c(=O)n1Cc1ccco1)c1ccc(F)cc1 | – | inconclusive: 6.51 µM [inhibitor, partial curve, poor fit]
Cc1csc(NC(=O)CCCC(=O)O)c1-c1nc2ccccc2s1 | inactive: 16.2% | –
O=C(O)/C=C/C(=O)NCCC1=CCCCC1 | inactive: 13.1% | –
CC(=O)c1cccc(NC(=S)NC(=O)CC(C)(C)C)c1 | – | inconclusive: 25.9 µM [activator, single point]
N#Cc1ccc(NC(=O)Cn2cnc(S(=O)(=O)N3CCCCC3)c2)cc1 | inactive: 0.0114% | –
O=C(COc1cccc2cccnc12)N/N=C1\SCC(=O)N1CCc1ccccc1 | – | inconclusive: 16.4 µM [inhibitor, partial curve, poor fit]
Cc1cccc(-c2cnn(-c3cccc([N+](=O)[O-])c3)c2N)c1 | inactive: -23% | –
COC(=O)c1sc2nc(CN3CCOCC3)nc(N3CCOCC3)c2c1C | inactive: -4.15% | –
CC(C)(C)NC(=O)C(c1ccccn1)N(C(=O)C1CSC(=O)C1)c1cccc(F)c1 (centres undefined) | – | inconclusive: 13 µM [activator, partial curve, poor fit]
N#Cc1cc2ccccc2nc1SCc1ccccn1 | – | inconclusive: 5.17 µM [activator, full curve]
O=C(NCCN1CCNC1=O)C1CCC(=O)N(Cc2cccc(C(F)(F)F)c2)C1 (centres undefined) | inactive: 26% | –
COc1ccc(CCc2nc(-c3ccc(-n4cccc4)cc3)no2)cc1 | – | inconclusive: 10.3 µM [inhibitor, partial curve, poor fit]
C=CCN1c2ccccc2[C@]23C[C@@H](C(=O)OC)N(C(=O)NCCC)C2=NC(C(=O)OC)=C(C(=O)OC)[C@H]13 | inactive: 6.51% | –
CCN1C(=O)c2cccc3c(N)ccc(c23)C1=O | inactive: 0% | –
C=CCNC(=S)Nc1ccc2nsnc2c1 | – | inconclusive: 10.3 µM [inhibitor, partial curve]
CCOc1ccc2nc(NC(NC(=O)CC)(C(=O)OC)C(F)(F)F)sc2c1 (centres undefined) | inactive: -3.04% | –
O=S(=O)(NCCCCCCNS(=O)(=O)c1c(F)cccc1F)c1ccc2c(c1)OCCO2 | – | inconclusive: 20.6 µM [inhibitor, partial curve, poor fit]

Exported in markdown: three of the compounds above

| Compound | activity change, negative = inhibition | Potency |
| --- | --- | --- |
| COc1ccc(CCNc2ccc(N3C(=O)CC(C)C3=O)cc2[N+](=O)[O-])cc1OC (centres undefined) | – | active: 3.66 µM |
| CC(C)(C)c1ccc(OCc2ccc(C(=O)NN)o2)cc1 | – | inconclusive: 1.46 µM [activator, full curve] |
| Cc1ccc(N2CCN(/N=C/c3sccc3C)CC2)cc1 | – | inconclusive: 20.6 µM [activator, single point] |

Single values from the results shown:
In activity change, negative = inhibition, `C=CCN1c2ccccc2[C@]23C[C@@H](C(=O)OC)N(C(=O)NCCC)C2=NC(C(=O)OC)=C(C(=O)OC)[C@H]13` reads inactive: 6.51%
In Potency, `O=S(=O)(NCCCCCCNS(=O)(=O)c1c(F)cccc1F)c1ccc2c(c1)OCCO2` reads inconclusive: 20.6 µM [inhibitor, partial curve, poor fit]

Next records follow.

Compound | activity change, negative = inhibition | Potency
Cc1ccc2c(CN3CCN(S(=O)(=O)c4ccccc4C(F)(F)F)CC3)cc(=O)oc2c1C | – | active: 16.4 µM
COc1ccc(O)c(C(=O)CC(=O)c2ccccc2C)c1 | – | inconclusive: 9.2 µM [activator, partial curve]
O/N=C/c1ccccc1OCc1ccc(Cl)cc1 | – | inconclusive: 13 µM [activator, partial curve]
O=C(c1cc2nc(-c3ccco3)cc(C(F)(F)F)n2n1)N1CCN(c2ccccc2)CC1 | – | inconclusive: 32.6 µM [inhibitor, single point]
CC(=O)N1CCC(C(=O)NCCOc2ccc(C)cc2)CC1 | inactive: 4.93% | –
CCC1CCc2sc(C(=O)N(C)CC(=O)Nc3ccc(N4CCOCC4)cc3)cc2C1 (centres undefined) | – | inconclusive: 23.1 µM [inhibitor, single point]
Cc1ccc(C(=O)/C=C/c2ccccc2[N+](=O)[O-])cc1 | – | inconclusive: 20.6 µM [activator, partial curve]
CCOC(=O)c1sc(=S)n(CC)c1N | – | inconclusive: 18.4 µM [activator, partial curve, poor fit]
Cc1ccc(C(=O)N2CCN(c3ccc(F)cc3)CC2)cc1S(=O)(=O)N1CCCCC1 | – | inconclusive: 3.26 µM [inhibitor, partial curve, poor fit]
Cc1ccc(OCCn2cc(/C=C3\C(=O)NN(c4ccccc4)C3=O)c3ccccc32)cc1 | – | inconclusive: 29.1 µM [inhibitor, single point]
Cc1cccn2c(=O)c(C(=O)NC3CCCCC3)c(O)nc12 | – | inconclusive: 7.3 µM [activator, partial curve]
CN(CCOc1ccc(F)cc1)Cc1ccccc1 | inactive: 14.9% | –
CCC(C)NCCOc1ccc(C)cc1[N+](=O)[O-] (centres undefined) | inactive: -0.752% | –
O=C(CN1CCC2(CC1)OCCO2)c1ccc2cc[nH]c2c1 | – | inconclusive: 1.64 µM [activator, partial curve]
O=C(NC[C@@H]1CCCO1)c1cccc2c1C(=O)c1ccc(N3CCOCC3)cc1S2(=O)=O | – | inconclusive: 25.9 µM [inhibitor, single point]
COc1ccc(CNC(=O)CN(Cc2ccc(C)cc2)S(=O)(=O)c2ccc(Cl)cc2)cc1 | – | inconclusive: 20.6 µM [inhibitor, partial curve, poor fit]
COc1ccc(OC)c(NC(=O)CS(=O)(=O)Cc2nc(-c3ccccc3C)oc2C)c1 | – | inconclusive: 16.4 µM [inhibitor, single point]
CCC(C)NS(=O)(=O)c1ccc(OCC(=O)NCc2ccc3c(c2)OCO3)cc1 (centres undefined) | – | inconclusive: 20.6 µM [inhibitor, partial curve, poor fit]
Cc1ccccc1CN1C2=NCCCN2c2ccccc21 | – | inconclusive: 29.1 µM [inhibitor, single point]
Cc1ccc(-n2c(C)n[nH]c2=S)cc1C | inactive: 8.18% | –
CCOc1ccccc1OCCOCCOc1ccccc1[N+](=O)[O-] | inactive: 3.98% | –
CCN(Cc1ccccc1)S(=O)(=O)c1ccc(C(=O)N(CCCN(C)C)c2nc3c(C)c(C)ccc3s2)cc1 | – | inconclusive: 18.3 µM [inhibitor, single point]
CS(=O)(=O)N(CC(O)Cn1c2ccccc2c2ccccc21)c1ccccc1 (centres undefined) | inactive: -2.63% | –
